Experimental data from publication PMC4496222.
Results are given in words; binding and its absence hold for the method and conditions named. Binding seen in cells or lysates may run through a third protein. Some entries that bind do so weakly or less than the wild type. Where a sequence is shown, tags or fusion partners need not be part of it.

Protein sequences, listed by entry. Tags and fused reporters are not part of them. Residues count along the entry.
UniProt P63165, residues 1-97: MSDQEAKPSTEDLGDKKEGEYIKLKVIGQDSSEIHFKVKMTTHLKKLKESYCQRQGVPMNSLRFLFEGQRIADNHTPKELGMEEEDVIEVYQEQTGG

Target: T1, Flag-Gab1 (wild type), transiently expressed in 293T cells (UniProt Q13480)
T1 sequence: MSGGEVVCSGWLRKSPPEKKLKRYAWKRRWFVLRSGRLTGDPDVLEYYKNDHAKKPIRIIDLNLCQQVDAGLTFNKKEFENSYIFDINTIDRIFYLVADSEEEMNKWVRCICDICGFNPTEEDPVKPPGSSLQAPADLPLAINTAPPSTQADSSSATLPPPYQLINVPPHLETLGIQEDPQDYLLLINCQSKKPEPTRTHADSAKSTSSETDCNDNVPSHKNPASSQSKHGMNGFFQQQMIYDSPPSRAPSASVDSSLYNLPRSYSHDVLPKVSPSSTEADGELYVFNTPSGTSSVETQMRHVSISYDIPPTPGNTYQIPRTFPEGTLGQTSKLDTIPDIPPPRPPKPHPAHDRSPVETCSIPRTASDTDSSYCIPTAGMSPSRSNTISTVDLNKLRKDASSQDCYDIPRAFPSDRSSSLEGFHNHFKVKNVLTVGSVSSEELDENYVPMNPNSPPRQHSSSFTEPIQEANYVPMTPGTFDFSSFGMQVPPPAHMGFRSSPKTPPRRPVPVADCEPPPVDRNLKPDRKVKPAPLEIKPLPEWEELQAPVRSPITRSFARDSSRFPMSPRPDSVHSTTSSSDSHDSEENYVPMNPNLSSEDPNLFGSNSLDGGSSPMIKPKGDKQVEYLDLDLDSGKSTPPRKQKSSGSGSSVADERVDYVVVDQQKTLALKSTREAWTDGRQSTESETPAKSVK
Test: co-IP; 293T cells co-transfected with His-SUMO1 and Flag-Gab1 WT or SIM1/2mut; IP with anti-Flag, blot with anti-His

Question: “His-SUMO1, expressed in 293T cells (from UniProt P63165 1-97)” was tested. Which binding did it give?
Answer: binds
